In patent US20260234234A1 one finds binding data, which are given here for 1 substance.

Chains of the proteins cited; added tags and fusions are not shown. Residues count along the entry.
UniProt Q969D9, residues 29-159: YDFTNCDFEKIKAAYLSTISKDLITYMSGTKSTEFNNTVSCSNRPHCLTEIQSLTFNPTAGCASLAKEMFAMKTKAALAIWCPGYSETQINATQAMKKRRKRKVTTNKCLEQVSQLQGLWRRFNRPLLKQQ

No constants are given. Whether binding was seen depends on the method and setting. Some entries that bind do so weakly or less than the wild type. Where a sequence is shown, tags or fusion partners need not be part of it.

This experiment concerns the target T1, hTSLPR-Fc dimer molecules from R&D Systems (cat. no. 981-TR) (human) (UniProt Q9HC73).
T1 sequence (looked up): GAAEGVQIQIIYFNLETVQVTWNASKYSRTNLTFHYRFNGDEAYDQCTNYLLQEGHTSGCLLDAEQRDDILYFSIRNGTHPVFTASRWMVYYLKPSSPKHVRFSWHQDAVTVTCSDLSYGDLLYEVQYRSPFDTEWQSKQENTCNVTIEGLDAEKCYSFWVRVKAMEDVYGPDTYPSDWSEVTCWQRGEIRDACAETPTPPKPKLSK
The experiment is described as follows: SPR, hTSLPR-Fc immobilised on CM5, hTSLP 0-50 nM (FIG. 10A).

In the case of “hTSLP antigen, version not stated (from UniProt Q969D9 29-159) (ligand)”, the binding entry is given as “binds”.
